PubChem BioAssay AID1053208 | Peter MacCallum Cancer Centre, 2014

Screen: 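Synthetic lethal interactions between gene loss and doxorubicin in osteosarcoma cells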 (primary screen)
System: mouse osteosarcoma cells, early-passage culture from an engineered mouse model of fibroblastic bone tumour
Reagent: siRNA pool against mouse genes, 40 nM
Duration: about 120 h (48 h before drug, then 72 h with drug)
Treatment: doxorubicin 100 nM for 72 h, roughly 30-40% inhibitory dose
Read-out: 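Luminescent ATP signal taken as viability with or without 100 nM doxorubicin for 72 h; mean of two wells set against non-targeting siRNA and turned into robust z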
Direction: viability z-score with doxorubicin: higher = more viable cells under doxorubicin; viability z-score without drug: higher = more viable cells with knock-down alone
Hit rule: 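Called active if knock-down leaves viability unchanged without drug (z within -2 to 2) but lowers it with doxorubicin (z at or under -2)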
The deposit covers about 17,000 reagents; shown is a part drawn at random. 788 of them (4.7%) count as active. 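Calls rest on z-score classes alone; an extra cut-off of viability at most 70% of control was not applied to them.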 Entries without a mark were called inactive. Further read-outs or replicates are left out here.

Gene	combined z-score class	viability z-score with doxorubicin	viability z-score without drug
Neurl1b	no change with or without drug	-0.9	-0.17
Reep2	no change with or without drug	0.45	-0.17
Ids	low cell count with and without drug	-2.47	-2.19
Ksr1	no change with or without drug	-0.67	0.17
Cdk18	no change with or without drug	-1.46	-1.85
Or2z2	no change with or without drug	-1.35	-0.67
Ces2e	no change with or without drug	-0.22	0.84
Syne2	no change with or without drug	0.79	-0.17
Zfp398	no change with or without drug	1.69	1.85
Mfsd11	no change with or without drug	-0.34	0.84
Ttc39c	no change with or without drug	0.67	-0.17
Amotl2	no change with or without drug	0.56	-0.34
Egfbp2	no change with or without drug	1.57	1.18
Abhd17b	no change with or without drug	0.22	1.85
Efcab5	no change with or without drug	-1.57	-0.17
Tuba3a	no change with or without drug	-1.8	-1.52
Cdx2	no change with or without drug	0.45	1.01
Matn3	no change with or without drug	1.01	-1.18
Foxe3	no change with or without drug	0.22	1.85
Htra2	no change with or without drug	0.9	0

A few values from the list.
Value of Neurl1b in “combined z-score class”: no change with or without drug
Result of Cdk18 in “viability z-score without drug”: -1.85
